Laboratory results as given in US20150197729A1.
These are yes or no findings as the source states them, for the method shown. For some assays here: In cells and extracts the contact can be indirect. Some binding calls cover weakened binding; strength is not graded here.

Amino acid sequences for entries named in this document (tags omitted). Residues count along the entry.
UniProt O14727: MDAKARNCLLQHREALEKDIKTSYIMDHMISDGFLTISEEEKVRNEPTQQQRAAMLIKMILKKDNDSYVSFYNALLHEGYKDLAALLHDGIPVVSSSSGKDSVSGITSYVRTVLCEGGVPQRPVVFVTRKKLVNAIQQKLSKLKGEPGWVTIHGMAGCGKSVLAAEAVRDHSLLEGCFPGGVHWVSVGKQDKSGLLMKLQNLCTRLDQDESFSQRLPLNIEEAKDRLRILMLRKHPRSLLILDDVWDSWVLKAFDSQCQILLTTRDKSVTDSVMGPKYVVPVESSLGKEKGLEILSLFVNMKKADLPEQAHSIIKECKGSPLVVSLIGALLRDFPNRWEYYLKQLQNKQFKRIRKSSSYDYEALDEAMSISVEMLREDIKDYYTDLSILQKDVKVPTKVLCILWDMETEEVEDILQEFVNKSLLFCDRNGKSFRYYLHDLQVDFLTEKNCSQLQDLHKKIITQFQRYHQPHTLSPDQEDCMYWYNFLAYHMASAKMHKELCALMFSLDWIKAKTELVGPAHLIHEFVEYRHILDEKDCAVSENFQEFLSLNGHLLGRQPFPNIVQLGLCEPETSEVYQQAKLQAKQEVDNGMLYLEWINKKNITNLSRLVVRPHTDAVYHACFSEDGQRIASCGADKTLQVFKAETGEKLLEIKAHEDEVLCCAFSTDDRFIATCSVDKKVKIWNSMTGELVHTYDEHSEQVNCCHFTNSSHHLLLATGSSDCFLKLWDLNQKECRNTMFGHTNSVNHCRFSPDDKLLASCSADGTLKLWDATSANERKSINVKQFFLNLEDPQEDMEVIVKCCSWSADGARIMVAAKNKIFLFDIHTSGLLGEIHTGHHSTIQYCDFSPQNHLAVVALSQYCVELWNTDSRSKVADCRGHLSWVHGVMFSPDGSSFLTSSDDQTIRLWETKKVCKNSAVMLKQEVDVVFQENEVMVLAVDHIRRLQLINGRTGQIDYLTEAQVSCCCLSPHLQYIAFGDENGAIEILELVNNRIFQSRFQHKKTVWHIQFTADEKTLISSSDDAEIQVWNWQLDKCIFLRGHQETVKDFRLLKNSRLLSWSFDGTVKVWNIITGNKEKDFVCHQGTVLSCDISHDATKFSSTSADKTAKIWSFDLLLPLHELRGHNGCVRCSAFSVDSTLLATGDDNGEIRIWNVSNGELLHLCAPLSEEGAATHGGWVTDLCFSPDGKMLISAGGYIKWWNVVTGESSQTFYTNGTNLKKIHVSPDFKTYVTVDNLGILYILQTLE
UniProt P62894, residues 2-105: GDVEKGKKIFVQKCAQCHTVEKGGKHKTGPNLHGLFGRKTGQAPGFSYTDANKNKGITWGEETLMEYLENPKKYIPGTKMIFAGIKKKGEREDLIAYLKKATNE

Experiments:
[1] = molecular target: Recombinant full-length Apaf-1 (amino acids 1-1248) (UniProt O14727); experiment: Pull-down with His-tagged Apaf-1 on Ni-NTA beads, Western blot with anti-cytochrome c and anti-Apaf-1; total cellular RNA at 0.1, 0.2 and 0.4 ug/ul in lanes 3-5
[2] = molecular target: Bovine cytochrome c (bovine) (UniProt P62894); experiment: pull-down: His-tagged Apaf-1 on Ni-NTA beads, 4 C, 1 h, Western blot

Substance	binding [1]	binding [2]
Bovine cytochrome c (from UniProt P62894 2-105)	binds	–
Recombinant full-length Apaf-1 (amino acids 1-1248) (from UniProt O14727 1-1248)	–	binds
